Data taken from the supplement of paper PMC6411743.
± gives the standard deviation of the averaged measurements. This is one part of the list.

Chains of the proteins cited; added tags and fusions are not shown. Lines headed by an entry give the natural chain unless they say otherwise; changes in a name come on top.
UniProt Q15005: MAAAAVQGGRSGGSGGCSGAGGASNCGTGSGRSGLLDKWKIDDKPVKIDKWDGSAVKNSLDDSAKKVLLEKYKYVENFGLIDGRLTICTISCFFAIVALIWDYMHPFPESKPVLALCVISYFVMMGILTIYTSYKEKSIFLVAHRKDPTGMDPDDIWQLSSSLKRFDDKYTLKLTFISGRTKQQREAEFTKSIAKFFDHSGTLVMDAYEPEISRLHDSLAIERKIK
UniProt Q9Y371: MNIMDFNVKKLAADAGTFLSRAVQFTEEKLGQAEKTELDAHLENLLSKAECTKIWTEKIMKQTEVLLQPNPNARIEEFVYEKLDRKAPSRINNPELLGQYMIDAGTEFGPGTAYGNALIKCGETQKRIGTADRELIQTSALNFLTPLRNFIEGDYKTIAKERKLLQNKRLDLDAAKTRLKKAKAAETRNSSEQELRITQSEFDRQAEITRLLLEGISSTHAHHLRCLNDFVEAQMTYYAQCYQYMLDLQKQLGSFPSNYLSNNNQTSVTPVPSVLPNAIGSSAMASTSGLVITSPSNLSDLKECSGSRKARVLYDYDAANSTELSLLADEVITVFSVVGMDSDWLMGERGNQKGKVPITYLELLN
UniProt Q16760: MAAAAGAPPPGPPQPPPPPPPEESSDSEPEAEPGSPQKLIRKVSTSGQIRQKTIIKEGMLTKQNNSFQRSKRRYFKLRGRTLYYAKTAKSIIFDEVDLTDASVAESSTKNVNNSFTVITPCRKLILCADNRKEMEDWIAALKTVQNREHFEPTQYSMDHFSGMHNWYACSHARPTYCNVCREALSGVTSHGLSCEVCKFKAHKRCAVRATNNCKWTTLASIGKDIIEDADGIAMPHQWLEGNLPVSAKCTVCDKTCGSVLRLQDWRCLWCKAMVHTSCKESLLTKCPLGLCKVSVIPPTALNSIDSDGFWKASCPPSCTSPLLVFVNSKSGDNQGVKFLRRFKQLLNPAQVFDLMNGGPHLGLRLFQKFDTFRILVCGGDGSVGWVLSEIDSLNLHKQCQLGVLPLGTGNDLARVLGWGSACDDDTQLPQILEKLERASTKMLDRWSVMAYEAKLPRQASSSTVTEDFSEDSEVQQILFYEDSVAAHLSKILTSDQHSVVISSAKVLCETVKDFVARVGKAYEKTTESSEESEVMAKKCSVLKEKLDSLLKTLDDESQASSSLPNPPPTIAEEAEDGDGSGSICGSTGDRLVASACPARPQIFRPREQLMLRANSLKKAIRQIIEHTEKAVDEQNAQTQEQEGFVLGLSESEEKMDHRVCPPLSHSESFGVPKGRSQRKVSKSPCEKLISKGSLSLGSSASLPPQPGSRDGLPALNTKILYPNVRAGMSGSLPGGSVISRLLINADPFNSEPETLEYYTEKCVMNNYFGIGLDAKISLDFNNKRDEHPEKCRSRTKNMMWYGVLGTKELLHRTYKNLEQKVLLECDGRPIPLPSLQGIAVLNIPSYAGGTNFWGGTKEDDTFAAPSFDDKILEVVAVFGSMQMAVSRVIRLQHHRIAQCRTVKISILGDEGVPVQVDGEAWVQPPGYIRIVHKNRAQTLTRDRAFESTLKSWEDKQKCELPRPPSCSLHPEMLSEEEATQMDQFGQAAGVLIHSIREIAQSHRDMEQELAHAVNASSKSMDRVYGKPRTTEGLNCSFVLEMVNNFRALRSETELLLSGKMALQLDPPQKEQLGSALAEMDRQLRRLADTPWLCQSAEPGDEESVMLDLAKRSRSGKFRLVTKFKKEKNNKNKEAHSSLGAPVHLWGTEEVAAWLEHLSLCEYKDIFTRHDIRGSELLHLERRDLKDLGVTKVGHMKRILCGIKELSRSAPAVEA
UniProt Q9Y314: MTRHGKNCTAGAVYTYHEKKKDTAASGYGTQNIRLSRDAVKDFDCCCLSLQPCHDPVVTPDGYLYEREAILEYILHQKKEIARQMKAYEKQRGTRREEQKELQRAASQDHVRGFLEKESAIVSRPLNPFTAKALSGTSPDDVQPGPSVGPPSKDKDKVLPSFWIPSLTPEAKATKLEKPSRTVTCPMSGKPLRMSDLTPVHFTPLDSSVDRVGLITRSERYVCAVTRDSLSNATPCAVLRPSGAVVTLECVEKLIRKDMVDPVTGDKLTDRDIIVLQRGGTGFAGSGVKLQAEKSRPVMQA
UniProt Q0VDG4: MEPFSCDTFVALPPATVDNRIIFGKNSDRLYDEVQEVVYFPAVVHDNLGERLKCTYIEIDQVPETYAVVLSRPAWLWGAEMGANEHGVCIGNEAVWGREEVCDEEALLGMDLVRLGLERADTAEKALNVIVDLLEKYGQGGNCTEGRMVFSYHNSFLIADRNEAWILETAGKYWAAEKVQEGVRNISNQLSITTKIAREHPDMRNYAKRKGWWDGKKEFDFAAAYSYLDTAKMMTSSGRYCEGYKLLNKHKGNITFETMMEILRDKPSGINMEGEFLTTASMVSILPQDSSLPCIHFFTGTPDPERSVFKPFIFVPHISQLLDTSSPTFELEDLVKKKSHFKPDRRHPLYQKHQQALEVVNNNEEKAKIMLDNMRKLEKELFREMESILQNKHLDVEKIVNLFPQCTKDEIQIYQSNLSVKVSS

Compound: Nc1nc2c(ncn2[C@@H]2O[C@H](COP(=O)(O)OP(=O)(O)OP(=O)(O)O)[C@@H](O)[C@H]2O)c(=O)[nH]1 [guanosine triphosphate]
Experiment: NP40-soluble protein abundance relative to vehicle (solubility fold change) (ratio); higher = more soluble protein in presence of GTP
Description: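 Solubility proteome profiling in Jurkat crude lysate. Lysate was treated with Mg-GTP (0.1-10 mM) for 10 min at room temperature and 3 min at 37 °C, then solubilised with 0.8% NP40 and benzonase, followed by ultracentrifugation. Proteins were quantified by TMT10 LC-MS/MS; the value is the NP40-soluble abundance relative to the NP40-processed vehicle, from 3 independent experiments.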

Target	NP40-soluble protein abundance (concentration: 0.1mM)	NP40-soluble protein abundance (concentration: 0.5mM)	NP40-soluble protein abundance (concentration: 1mM)	NP40-soluble protein abundance (concentration: 2mM)	NP40-soluble protein abundance (concentration: 4mM)	NP40-soluble protein abundance (concentration: 6mM)	NP40-soluble protein abundance (concentration: 8mM)	NP40-soluble protein abundance (concentration: 10mM)
A0A087WUC6|E9PI68 and related entries (UniProt Q15005)	0.955 ± 0.026	0.955 ± 0.018	0.899 ± 0.025	0.882 ± 0.05	0.858 ± 0.041	0.881 ± 0.045	0.859 ± 0.055	0.843 ± 0.061
A0A087WW40|Q9Y371 and related entries (UniProt Q9Y371)	0.937 ± 0.098	0.95 ± 0.09	0.933 ± 0.094	0.888 ± 0.12	0.875 ± 0.11	0.882 ± 0.096	0.883 ± 0.084	0.879 ± 0.083
A0A087WUZ9|H7BZR7 and related entries (UniProt Q16760)	0.988 ± 0.026	0.993 ± 0.061	0.949 ± 0.036	0.993 ± 0.062	1.01 ± 0.081	0.911 ± 0.12	1 ± 0.017	0.953 ± 0.071
A0A075B6F9|M0R3B2 and related entries (UniProt Q9Y314)	0.979 ± 0.031	0.954 ± 0.029	0.899 ± 0.068	0.913 ± 0.055	0.9 ± 0.06	0.944 ± 0.074	0.938 ± 0.044	0.918 ± 0.066
A0A087WW14|Q0VDG4 and related entries (UniProt Q0VDG4)	1.07 ± 0.07	1 ± 0.052	0.9363 ± 0.0053	0.994 ± 0.07	0.954 ± 0.031	0.935 ± 0.062	0.9532 ± 0.0082	0.931 ± 0.057
